# Values from PubChem BioAssay AID652272 (Drosophila RNAi Screening Center, 2013)
# Screen: 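Genes whose knock-down decreases or increases Hedgehog reporter output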 (primary screen)
# Cell system: Drosophila clone 8 (Cl8) cells
# Knock-down reagent: long dsRNA against Drosophila genes
# Detection: 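Plate reader light from a firefly reporter under a ptc promoter fragment that responds to Hedgehog, with Renilla light as transfection reference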
# Scale: firefly Hh reporter signal: higher = more ptc reporter light; Renilla reference signal: higher = more Renilla control light
# Rule for the call: 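Hit when the z-score averaged over two replicates is under -2 or over +3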
# Calls: active = hit: reporter lowered or raised; inactive = not a hit
# The deposit covers about 21,000 reagents; shown is a random part of those with a known target gene and a result. Over the whole deposit, 503 (2.4%) are marked active. 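Raw plate light values, not normalised; calls rest on replicate z-scores that were not deposited; hits include reporter decreases as well as increases.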 Unmarked entries are inactive. The numbers tell different reagents against one gene apart. Names joined by + are all predicted targets of the reagent. Not given: the amount of reagent, the time to read-out.
gene,dsRNA no.,"firefly Hh reporter signal, replicate 1","firefly Hh reporter signal, replicate 2","firefly Hh reporter signal, replicate 3","Renilla reference signal, replicate 1","Renilla reference signal, replicate 2"
CG30114,1,86640,1.38e5,,3040,6704
Actn,1,75628,62888,,1751,2056
CG3748,1,69336,44316,,1398,4163
CG34205,1,1.30e5,84549,,3174,7612
Ube3a,1,1.04e5,95164,,5057,3756
Cyp313a5,1,1.09e5,1.94e5,,3136,4967
CG17266,1,1.50e5,66058,,3480,5609
CG5886,1,78359,88273,,1377,2201
CG15482,1,1.22e5,57750,,3556,4683
CG13623,1,5.95e5,83428,,32009,2012
pb,1,1.94e5,,,3920,
pb,2,68768,71124,,2972,2151
px,1,39072,61111,,1896,2733
LysS,1,62536,45261,,2465,3346
AttA,1,1.16e5,67062,,3287,2759
Tmem43,1,23211,54688,,4752,4880
polyph,1,67065,38610,,1543,2704
CG10561,1,63500,73476,,2796,3495
CG16863,1,87657,39922,,2519,4327
SuUR,1,71981,70498,69858,5520,5031
RpS7,1,25682,43858,,1250,1955
CG12506,1,72483,58490,,1723,1545
CR31292,1,40534,2.24e5,,4282,3665
Chrac-16,1,60938,27321,,4304,925
ArgRS-m,1,58987,4.93e5,1.41e5,2345,3602
eater,1,1.47e5,7.95e5,1.64e5,3733,5011
Grl62c,1,1.22e5,2.21e5,,3446,10273
CG33490,1,74327,50531,,3328,2064
Noc1,1,1.00e5,41271,,5608,2184
RpS14b,1,47915,22183,,3769,939
Prosalpha6T,1,1.03e5,54391,,2713,4731
CG9447,1,1.07e5,58294,,2356,4432
CG30385,1,1.09e5,55968,,2726,5061
CG15368,1,48864,1.04e5,,1589,4592
Gpb5,1,7.91e5,2.30e5,,42354,5428
nmdyn-D7,1,64882,96644,,1512,2752
CG14227,1,6.50e5,1.15e5,,4864,4864
CG32269 + CG32270,1,1.04e5,53928,,3457,3539
CG3764,1,65995,82210,,3111,3418

An excerpt from above, showing only “firefly Hh reporter signal, replicate 2”.
RpS7: 43858
CG12506: 58490
CR31292: 2.24e5
Chrac-16: 27321
ArgRS-m: 4.93e5
